Laboratory results taken from patent US20230285353A1, “A CHEMICAL COCKTAIL DRIVING EXPANSION OF MYOGENIC STEM CELLS” (The Regents of the University of California, priority 2020, published 2023).
At least one compound was matched to its structure with a doubt left.

Tested on: neonatal dermal fibroblast-like cells
Experiment: Screening small-molecules for myogenic induction (TnT+ cells)
Format: cell-based, mouse
Details: F or R alone
Method: The next day the original medium was replaced with a screening medium containing small-molecule cocktails: KnockOut DMEM (Thermo Fisher Scientific), 10% knockout serum replacement (Thermo Fisher Scientific), 10% FBS (Hyclone, Inc.), 2 mM GlutaMAX (Thermo Fisher Scientific), 1% nonessential amino acids (Thermo Fisher Scientific), 1% penicillin-streptomycin (Thermo Fisher Scientific) and 20 ng/ml bFGF (Stemgent) containing the various small molecules, including valproic acid ([…]), tranylcypromine (T, 5 μM), forskolin (F, 10 μM), and 5-aza-2'deoxycytidine (5-Aza) (5-aza, 5 μM). The medium was changed once every 2-3 days. After optimizing the cocktail of small molecules and concentrations, the screening medium was replaced with Fb medium for further screening of additional candidates that may improve myogenic efficiency, including ascorbic acid (50 μg/ml, Sigma), BMP4 (20 ng/ml, Stemgent), Insulin (10 μg/ml, Stemgent), IGF-1 (50 ng/ml, R&D Systems), PDGF (50 ng/ml, R&D Systems), and bFGF (50 ng/ml, Stemgent Inc.). For cell immunostaining, cells were fixed in 4% paraformaldehyde for 15 minutes and permeabilized with 0.5% Triton-X 100 in PBS for 15 minutes. […]

Compound: C=C[C@@]1(C)CC(=O)[C@]2(O)[C@@]3(C)[C@@H](O)CCC(C)(C)[C@@H]3[C@H](O)[C@H](OC(C)=O)[C@@]2(C)O1 [F, forskolin]
- efficiency of CiMC expansion from dermal cells with single agent: almost negligible
